Results are given in words; binding and its absence hold for the method and conditions named. In cells and extracts the contact can be indirect. Some entries that bind do so weakly or less than the wild type.
T1: NUSAP1 (endogenous, TNBC cells) (human (endogenous in MDA-MB-231, MDA-MB-468, HCC1937)) (UniProt Q9BXS6)
T1 sequence: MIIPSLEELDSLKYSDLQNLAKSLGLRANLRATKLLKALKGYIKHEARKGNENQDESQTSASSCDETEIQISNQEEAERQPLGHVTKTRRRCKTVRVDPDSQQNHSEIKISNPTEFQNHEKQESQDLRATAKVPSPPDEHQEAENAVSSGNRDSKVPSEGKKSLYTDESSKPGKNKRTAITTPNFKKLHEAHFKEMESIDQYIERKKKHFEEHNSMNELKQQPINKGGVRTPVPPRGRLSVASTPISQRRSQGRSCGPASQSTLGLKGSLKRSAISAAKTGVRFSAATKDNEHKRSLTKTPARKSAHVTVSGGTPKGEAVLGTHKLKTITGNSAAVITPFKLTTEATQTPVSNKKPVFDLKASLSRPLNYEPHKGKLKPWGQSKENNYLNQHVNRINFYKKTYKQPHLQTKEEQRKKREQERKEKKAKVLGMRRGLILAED

By UniProt entry, the sequences of proteins in these tests, tags left out.
UniProt Q9UER7: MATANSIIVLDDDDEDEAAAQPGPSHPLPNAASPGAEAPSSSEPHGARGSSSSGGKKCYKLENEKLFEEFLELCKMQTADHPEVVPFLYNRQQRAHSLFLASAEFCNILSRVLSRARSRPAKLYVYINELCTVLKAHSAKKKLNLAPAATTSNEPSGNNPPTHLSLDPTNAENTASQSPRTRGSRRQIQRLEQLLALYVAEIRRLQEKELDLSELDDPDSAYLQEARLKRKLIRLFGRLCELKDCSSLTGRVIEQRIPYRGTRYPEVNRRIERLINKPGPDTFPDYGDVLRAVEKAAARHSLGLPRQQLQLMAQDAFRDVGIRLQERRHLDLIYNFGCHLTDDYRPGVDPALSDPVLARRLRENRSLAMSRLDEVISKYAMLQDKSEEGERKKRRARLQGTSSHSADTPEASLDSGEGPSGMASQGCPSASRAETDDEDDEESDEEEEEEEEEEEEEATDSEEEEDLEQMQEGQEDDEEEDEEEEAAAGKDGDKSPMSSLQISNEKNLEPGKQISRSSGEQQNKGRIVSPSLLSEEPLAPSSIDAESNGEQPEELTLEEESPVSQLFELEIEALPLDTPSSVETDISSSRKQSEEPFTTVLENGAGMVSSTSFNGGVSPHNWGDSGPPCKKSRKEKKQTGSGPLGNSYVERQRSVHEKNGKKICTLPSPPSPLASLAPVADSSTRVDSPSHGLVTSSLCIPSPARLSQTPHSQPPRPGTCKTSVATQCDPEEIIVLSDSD
UniProt Q99814: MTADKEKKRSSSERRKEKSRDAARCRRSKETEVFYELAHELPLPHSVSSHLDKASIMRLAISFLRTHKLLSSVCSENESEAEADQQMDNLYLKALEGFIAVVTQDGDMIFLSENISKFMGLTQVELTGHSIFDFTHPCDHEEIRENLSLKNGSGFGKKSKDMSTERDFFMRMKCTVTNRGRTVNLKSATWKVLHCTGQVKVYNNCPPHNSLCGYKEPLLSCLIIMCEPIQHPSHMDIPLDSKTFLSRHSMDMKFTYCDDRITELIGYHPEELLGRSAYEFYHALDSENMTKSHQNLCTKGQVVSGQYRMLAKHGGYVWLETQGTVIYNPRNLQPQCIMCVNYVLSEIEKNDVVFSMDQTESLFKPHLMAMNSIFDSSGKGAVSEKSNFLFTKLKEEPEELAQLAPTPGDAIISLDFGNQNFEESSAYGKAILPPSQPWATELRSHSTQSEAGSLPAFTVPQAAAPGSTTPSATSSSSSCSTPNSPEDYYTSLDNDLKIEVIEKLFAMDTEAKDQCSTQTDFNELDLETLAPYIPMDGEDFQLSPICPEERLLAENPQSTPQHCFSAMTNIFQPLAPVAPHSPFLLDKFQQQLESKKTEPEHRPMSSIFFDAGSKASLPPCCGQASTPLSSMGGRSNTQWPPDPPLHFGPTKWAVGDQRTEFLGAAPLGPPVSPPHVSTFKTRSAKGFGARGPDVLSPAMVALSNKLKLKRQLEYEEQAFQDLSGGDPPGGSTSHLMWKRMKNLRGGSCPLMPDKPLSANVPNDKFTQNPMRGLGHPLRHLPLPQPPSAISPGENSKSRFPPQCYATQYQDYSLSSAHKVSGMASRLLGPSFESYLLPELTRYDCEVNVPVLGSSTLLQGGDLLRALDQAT


Experiments:
[1] = target: T1, NUSAP1 (endogenous, TNBC cells) (human (endogenous in MDA-MB-231, MDA-MB-468, HCC1937)); experiment: co-IP; cell lysates in NETN buffer (10 mM Tris-HCl, 150 mM NaCl, 1 mM EDTA, 0.5% NP-40, pH 7.4), indicated antibodies and protein A/G magnetic beads overnight at 4 °C, immunoblot; TNBC cells treated with MG132 (10 µM, 6 h), 1% O2 for 6 h or normoxic; also with shNUSAP1, shDAXX, NUSAP1, DAXX or TS-MAD overexpression
[2] = target: DAXX (in TNBC cells) (human (endogenous in MDA-MB-231, MDA-MB-468)) (UniProt Q9UER7); experiment: as above

| binding [1] | binding [2] | Molecule |
| --- | --- | --- |
| binds | – | DAXX (in TNBC cells) (from UniProt Q9UER7 1-740) |
| binds | – | HIF2α (in TNBC cells) (from UniProt Q99814 1-870) |
| – | binds | SUV39H1 (in TNBC cells) (enzyme, UniProt O43463 1-412) MAENLKGCSVCCKSSWNQLQDLCRLAKLSCPALGISKRNLYDFEVEYLCDYKKIREQEYYLVKWRGYPDSESTWEPRQNLKCVRILKQFHKDLERELLRRHHRSKTPRHLDPSLANYLVQKAKQRRALRRWEQELNAKRSHLGRITVENEVDLDGPPRAFVYINEYRVGEGITLNQVAVGCECQDCLWAPTGGCCPGASLHKFAYNDQGQVRLRAGLPIYECNSRCRCGYDCPNRVVQKGIRYDLCIFRTDDGRGWGVRTLEKIRKNSFVMEYVGEIITSEEAERRGQIYDRQGATYLFDLDYVEDVYTVDAAYYGNISHFVNHSCDPNLQVYNVFIDNLDERLPRIAFFATRTIRAGEELTFDYNMQVDPVDMESTRMDSNFGLAGLPGSPKKRVRIECKCGTESCRKYLF |
